Here are results for 1 molecule from paper PMC4321484.

This assay addresses s-Yju3p, soluble variant (L175S) of the monoglyceride lipase Yju3p from Saccharomyces cerevisiae (S. cerevisiae). The assay is described as follows: SEC; Superdex 200 in buffer A (20 mM Tris-HCl pH 8.0, 100 mM NaCl, 5% glycerol, 1 mM EDTA, 1 mM DTT), flow rate 2 ml/min; after Ni-NTA; both purified.

These are yes or no findings as the source states them, for the method shown. Tags and fused reporters may be left off the sequences shown.

B1: s-Yju3p, soluble variant (L175S) of the monoglyceride lipase Yju3p from Saccharomyces cerevisiae (enzyme)
chain: APYPYKVQTTVPELQYENFDGAKFGYMFWPVQNGTNEVRGRVLLIHGFGEYTKIQFRLMDHLSLNGYESFTFDQRGAGVTSPGRSKGVTDEYHVFNDLEHFVEKNLSECKAKGIPLFMWGHSMGGGICLNYACQGKHKNEISGYIGSGPLIILHPHTMYNKPTQIIAPLLAKFSPRVRIDTGLDLKGITSDKAYRAFLGSDPMSVPLYGSFRQIHDFMQRGAKLYKNENNYIQKNFAKDKPVIIMHGQDDTINDPKGSEKFIRDCPSADKELKLYPGARHSIFSLETDKVFNTVFNDMKQWLDKHTTTEAKP
Take B1: the binding entry was “no binding”.
